Here are results for 67 sequences from PubChem BioAssay AID1347423 (Functional Genomics Laboratory (NCATS/FGL), 2020).

In all, about 52,000 sequences went through this assay and about 210 (0.4%) were called active.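 How the source made its calls: active means gene whose silencing raises cell survival under the drug, median off-target-corrected z-score across its silencing RNAs 2 or more; inactive means the rest.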 This is one part of the list.

The assay can be described thus: Resistance to Poly (ADP-Ribose) Polymerase inhibitor: Gene Identification via Genome-wide siRNA Screen. The conditions noted are these: mouse BRCA2 R2336H ES cells, olaparib, CellTiter-Glo viability; hits give high values. The method, boiled down:
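Mouse BRCA2 R2336H ES cells were reverse-transfected with siRNA (20 nM final), treated at 48 h with 500 nM olaparib, and read by CellTiter-Glo after 72 h. Scores: MAD-based z per siRNA, median per gene, seed off-target correction.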
Background: ATP-based viability assays read luminescence as a measure of living cells.
As for “CCCGCAUGCUCUUUGUAACTT against 4632411B12Rik”, the z-score is inactive: -0.714. Then “GCGUCUCAUAGAGUUGGUGTT against 2900024O10Rik”, with inactive: 0.145. With GCAGAAAAUACCCAGUUUGTT against Hmox2 the figure was inactive: 1.02.

For GGGCAUCAUCACUUGUGCCTT against Crim2, the z-score is inactive: 0.317. Then GGAAAAUCAACAGCAUCAATT against Olfr661, with inactive: -0.0718; and “GGAAAUGAAGGAAAAGGAATT against 5730405I09Rik”, with inactive: 0.0154; and GCCUGUGCAAAAAGUAGGGTT against Grasp, with inactive: 0.137. For the sequence GGAGUAUGAAUUUGUGACUTT against Arhgdig, the z-score is inactive: -1.08. GUGUCUUGGGAAACAACUUTT against Gchfr: the z-score is inactive: 0.478. With GCAGAAAGAAUGCAGAUAATT against Zfp281 the figure was inactive: -1.9; with “CGUACUCCGAAUUCAUGCATT against 2610003J06Rik”, inactive: 0.144; with GGAGAGUAAAUACCGACAGTT against Homer2, inactive: 2.85.

With GGUUGUGUUGCUAAUCUUUTT against Trf3, the z-score is inactive: -0.649. Then GGGAUACUGGUGCUUAACUTT against Abhd1, with inactive: 0.661; and GGCCACCUUGUGUUUAUCUTT against Lrg1, with inactive: 1.78; and AUACAACAGCACAACUGAUTT against BC015286, with inactive: 0.104.

Take GCAAUGCAUGAAGACUCGUTT against Sitpec: the z-score was inactive: -1.05. With CCAGUUUAUUGAGAAUAAGTT against Rab4b the figure was inactive: 1.06; with GGUUCUCAGUCAUAUUUACTT against Fbxl12, inactive: 0.599. Then GGAAGAGGAGGAACAGAGATT against Hmga1l4, with inactive: 1.42. Then GCAUUGUGGAACAAACCUATT against Gabpa, with inactive: -2.36; and GGGCUUUGGCUACAAAGGCTT against Ppif, with inactive: -0.35; and GGAAGAAGCCAAAAUUGAATT against Pdgfa, with inactive: 1.24.

Turning to CGACUUGACAUCGUCAGUATT against Cno, the z-score was inactive: -0.0146. Turning to “CCAAAAGCUUUUGUGUUCATT against 1200006O19Rik”, the z-score was inactive: -0.905.

In the case of GGAGCUACCCGACAUACUGTT against Cfi, the z-score was inactive: 1.06.

For GGGUUUAGACGUAGAUUCUTT against Rpl17, the z-score is inactive: -3.07.

As for GGGACCAGAAUAUGACUGGTT against Ppp2cz, the z-score was inactive: -0.348. With GCGUGUAUACCAGCCUUACTT against Egfl7 the figure was inactive: -3.23. Then “GCCGGAUGUUCUUUGGCAATT against 2610012O22Rik”, with inactive: -0.683; and GGCAUGAUGAUAUUUGAAATT against Glrp1, with inactive: -0.524; and GCUCUCCACUGACUUAGUATT against Mrgpra3, with inactive: 0.285. Then GGUCAUGAUGAAUGAGACUTT against Cstf1, with inactive: 1.05. As for CCUGUACCUGACCAAACCUTT against Socs2, the z-score was inactive: -0.498. Then GGUCUUAUGUAAGUGGUAUTT against Asrij, with inactive: -1.28. As for GGUGAACUGAAAAUUCUAGTT against Usp12, the z-score is inactive: 0.882.

GGAAGCAUUUGAAGUUAAATT against Prdm16: the z-score is inactive: 0.00871. Then CCAUACUACGGAUGUUUGATT against Calb2, with inactive: 0.535.

As for CCAUGUCAAAGAAAAACCATT against Rfx2, the z-score was inactive: 0.0165. With GGAUUCCUGGUCUUUAAGCTT against Zfp7 the figure was inactive: 0.136; with GGUCAGCAUUAUCAAGCCUTT against Hsd11b2, inactive: 2.61. In the case of “GGAGAGAAAGGAAAUGUUUTT against D5Ertd135e”, the z-score is inactive: -1.6. Then GGUCACACCCACCAUUACGTT against Serpina11, with inactive: -1.79; and GGAUCCUAAUGAGGACAUUTT against Igj, with inactive: 1.15. With CCUAUUGACUGUGAGCUAUTT against C8b the figure was inactive: -1.18; with “CGUAGAGAGUCUCCCAUCATT against 4930474N05”, inactive: -0.0472; with GGAACAAAUAAAUCAGGGATT against Smc6l1, inactive: -0.89. For UCAACCAAACAAUCCUGAATT against Olfr417, the z-score was inactive: 0.443. With GGAUGUGAUCCUACUGACATT against Hspc171, the z-score was inactive: -1.37. With GGUCAUCCUCAAGUCUCCUTT against Stmn3 the figure was inactive: 0.261. Then GGACGAUGAAGACAGCAAGTT against Scn8a, with inactive: 0.983; and GGGAAAAAGAGCUUUUAGCTT against Helt, with inactive: 0.211. Regarding GGUGUUGCUGUGUUUUAUATT against Olfr1259, the z-score is inactive: 1.04. Then CGACAUGGAGACAAUCUAUTT against Ptges, with inactive: -1.04; and “GAGAUGGAUGGAAAAAAAATT against 1700127D06Rik”, with inactive: -0.00882. Consider “GGACGACUGGAAGUUUUCUTT against 5830411N06Rik”, for which the z-score is inactive: -1.02. With GGAAUGUUAAUGAUGCAGATT against Nmb the figure was inactive: -0.521; with GGUUUGUGUCCAGCUGCUUTT against Olfr502, inactive: -1.96. With GGCGAAAAUAAGUUGAAAATT against Bhlhb5 the figure was inactive: 0.915; with “GGAGAAACAGUUGUCAACUTT against 4930535B03Rik”, inactive: -1.57. With GGGAUUGUGAAUUUCAUGUTT against Gca the figure was inactive: -0.598; with GCCAGAGAUUCCUCAACGATT against Rpp21, inactive: -0.37; with “GGCCUUUACACGUGAGUCUTT against B230312I18Rik”, inactive: 0.962. GGGUGGUUUUAGUGUACUATT against Mrgpra7: the z-score was inactive: -1.14. With CCUUCAGUGCUGUAGUGUATT against Rasl10b the figure was inactive: 0.108; with GGGAGAGAAAUCCCAUUCUTT against Bsnd, inactive: -0.446.

For “CGCGAACUCUCCCUUACUUTT against 4931440L10Rik”, the z-score was inactive: 0.958.
